PubChem BioAssay AID1259300 | Sanger Institute, 2017
Shown is one part, drawn at random, of 794 reagents. In the full data, 18 (2.3%) are marked active. 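Calls rest on knock-down alone, not drug synergy; depositor treated synergy scores above 0.15 as synergistic; drug doses alone had little viability effect.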 A number with no mark means an inactive call. Not all columns of the deposit are shown. The record does not give: the amount of reagent, the time to read-out.

Aim: 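Kinase and colorectal-mutated gene knock-downs lowering HCT15 viability or boosting drug effects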 (primary screen)
Cell system: HCT15 colorectal cancer cells
Reagent: siRNA pool against human genes
Challenge: anchor drug or DMSO vehicle added 24 h after seeding: BYL719 1 µM, cetuximab 5 µg/ml, trametinib 10 nM; drug doses chosen to barely affect viability alone
Detection: 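Replicate-mean viability relative to non-targeting pool control with robust z-score for knock-down without drug; per-drug synergy scores for BYL719 (1 µM), cetuximab (5 µg/ml), trametinib (10 nM)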
Scale: viability z-score, siRNA alone: higher = more viable cells after knock-down
Active means: 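Called active (essential) if viability z-score with knock-down alone falls below -3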
Calls: active = essential: knock-down alone lowers viability (z below -3); inactive = no strong viability loss with knock-down alone

| Target gene | viability z-score, siRNA alone |
| --- | --- |
| PRKAB2 (GeneID 5565) | -1.74 |
| EIF2AK2 (GeneID 5610) | -0.37 |
| CDK4 (GeneID 1019) | 0.625 |
| MAPK4 (GeneID 5596) | 0.625 |
| TEK (GeneID 7010) | 0.175 |
| SMAD2 (GeneID 4087) | 0.625 |
| ATM (GeneID 472) | -0.164 |
| TAF1 (GeneID 6872) | 0.111 |
| FRK (GeneID 2444) | 0.625 |
| SIK1 (GeneID 150094) | 0.625 |
| MAP2K7 (GeneID 5609) | 0.625 |
| CHEK1 (GeneID 1111) | -2.56 |
| GRK5 (GeneID 2869) | 0.625 |
| CILK1 (GeneID 22858) | 0.625 |
| CRIM1 (GeneID 51232) | 0.625 |
| PFKL (GeneID 5211) | -0.597 |
| TGFBR2 (GeneID 7048) | -0.305 |
| PPP2R1A (GeneID 5518) | -0.954 |
| CPNE3 (GeneID 8895) | -0.469 |
| PDK2 (GeneID 5164) | 0.625 |
| TEX14 (GeneID 56155) | 0.625 |
| PINK1 (GeneID 65018) | 0.625 |
| NME7 (GeneID 29922) | -0.197 |
| PIM3 (GeneID 415116) | 0.625 |

Reformatted: results already given.
{"Target gene": "SMAD2 (GeneID 4087)", "viability z-score, siRNA alone": 0.625}
{"Target gene": "ATM (GeneID 472)", "viability z-score, siRNA alone": -0.164}
{"Target gene": "TAF1 (GeneID 6872)", "viability z-score, siRNA alone": 0.111}
{"Target gene": "FRK (GeneID 2444)", "viability z-score, siRNA alone": 0.625}
